Some of the results follow.
Compound: Cc1cc(ccc1-c1ccccc1)C(=O)N1CCCN(CC1)C(=O)CCl [compound 10]
Experiment: probe-labelled cysteine peptide fold change vs DMSO (competition) (log2 fold change); higher = less target engagement (more negative = stronger competition)
Settings: THP-1, incubation time: 4 h
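Note: competitive profiling in live THP-1 cells: cysteine peptides tagged with an iodoacetamide desthiobiotin (IA-DTB) probe, intensity after compound treatment relative to DMSO-treated cells.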

Protein sequences, listed by entry. Tags and fused reporters are not part of them. Lines headed by an entry give the natural chain unless they say otherwise; changes in a name come on top.
UniProt P52701: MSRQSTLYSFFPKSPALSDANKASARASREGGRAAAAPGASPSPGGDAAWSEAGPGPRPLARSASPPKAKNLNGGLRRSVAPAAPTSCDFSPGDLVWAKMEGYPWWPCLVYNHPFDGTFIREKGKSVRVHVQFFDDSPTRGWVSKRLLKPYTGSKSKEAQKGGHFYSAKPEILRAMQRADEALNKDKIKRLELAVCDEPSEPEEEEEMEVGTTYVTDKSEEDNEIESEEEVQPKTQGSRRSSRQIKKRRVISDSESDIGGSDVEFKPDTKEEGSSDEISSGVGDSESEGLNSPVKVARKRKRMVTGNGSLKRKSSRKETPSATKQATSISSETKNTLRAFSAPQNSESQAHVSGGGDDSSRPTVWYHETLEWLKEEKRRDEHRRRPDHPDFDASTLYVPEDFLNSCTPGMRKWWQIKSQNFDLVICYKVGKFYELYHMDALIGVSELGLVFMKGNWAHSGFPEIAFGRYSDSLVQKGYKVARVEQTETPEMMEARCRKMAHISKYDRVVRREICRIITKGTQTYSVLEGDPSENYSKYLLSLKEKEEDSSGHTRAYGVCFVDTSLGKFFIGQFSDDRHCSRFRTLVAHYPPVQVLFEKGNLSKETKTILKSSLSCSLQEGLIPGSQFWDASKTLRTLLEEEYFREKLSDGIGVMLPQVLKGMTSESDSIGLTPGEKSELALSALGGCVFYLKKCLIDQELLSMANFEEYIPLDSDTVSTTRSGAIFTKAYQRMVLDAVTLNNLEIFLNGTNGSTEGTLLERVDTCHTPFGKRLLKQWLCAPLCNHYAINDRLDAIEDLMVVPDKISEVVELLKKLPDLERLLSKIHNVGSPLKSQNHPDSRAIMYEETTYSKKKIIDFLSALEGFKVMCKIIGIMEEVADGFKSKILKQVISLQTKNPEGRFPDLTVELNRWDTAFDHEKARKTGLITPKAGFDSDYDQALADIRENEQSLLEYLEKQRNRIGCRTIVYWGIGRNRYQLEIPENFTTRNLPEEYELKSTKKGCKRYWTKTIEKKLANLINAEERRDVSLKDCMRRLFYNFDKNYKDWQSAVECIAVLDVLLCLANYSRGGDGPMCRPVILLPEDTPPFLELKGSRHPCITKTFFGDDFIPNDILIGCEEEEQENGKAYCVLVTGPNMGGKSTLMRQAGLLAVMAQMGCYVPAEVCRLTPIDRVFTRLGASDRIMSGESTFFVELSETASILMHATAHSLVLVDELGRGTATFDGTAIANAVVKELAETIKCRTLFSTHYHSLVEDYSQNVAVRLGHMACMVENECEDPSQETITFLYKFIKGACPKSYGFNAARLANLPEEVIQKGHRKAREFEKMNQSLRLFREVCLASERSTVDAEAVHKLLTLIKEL
UniProt Q9C0I1: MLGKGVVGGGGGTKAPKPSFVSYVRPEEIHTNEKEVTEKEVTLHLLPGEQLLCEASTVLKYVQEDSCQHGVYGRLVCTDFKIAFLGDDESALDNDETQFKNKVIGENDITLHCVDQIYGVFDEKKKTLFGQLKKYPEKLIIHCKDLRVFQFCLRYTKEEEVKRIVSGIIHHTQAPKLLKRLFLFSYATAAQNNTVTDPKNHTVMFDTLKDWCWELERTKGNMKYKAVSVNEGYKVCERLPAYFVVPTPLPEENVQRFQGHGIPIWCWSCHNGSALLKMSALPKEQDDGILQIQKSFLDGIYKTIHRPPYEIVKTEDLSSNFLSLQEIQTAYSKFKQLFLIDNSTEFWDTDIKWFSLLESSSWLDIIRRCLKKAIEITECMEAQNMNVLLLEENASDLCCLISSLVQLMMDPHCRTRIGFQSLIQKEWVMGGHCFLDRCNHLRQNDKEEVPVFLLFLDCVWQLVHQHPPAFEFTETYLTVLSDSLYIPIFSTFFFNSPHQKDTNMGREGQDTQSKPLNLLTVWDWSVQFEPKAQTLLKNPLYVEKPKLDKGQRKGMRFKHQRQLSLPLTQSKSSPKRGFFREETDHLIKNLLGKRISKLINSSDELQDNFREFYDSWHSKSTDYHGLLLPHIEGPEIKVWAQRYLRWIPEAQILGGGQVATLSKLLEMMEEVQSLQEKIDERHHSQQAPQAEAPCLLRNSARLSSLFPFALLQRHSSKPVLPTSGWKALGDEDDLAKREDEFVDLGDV
UniProt Q9BQG0: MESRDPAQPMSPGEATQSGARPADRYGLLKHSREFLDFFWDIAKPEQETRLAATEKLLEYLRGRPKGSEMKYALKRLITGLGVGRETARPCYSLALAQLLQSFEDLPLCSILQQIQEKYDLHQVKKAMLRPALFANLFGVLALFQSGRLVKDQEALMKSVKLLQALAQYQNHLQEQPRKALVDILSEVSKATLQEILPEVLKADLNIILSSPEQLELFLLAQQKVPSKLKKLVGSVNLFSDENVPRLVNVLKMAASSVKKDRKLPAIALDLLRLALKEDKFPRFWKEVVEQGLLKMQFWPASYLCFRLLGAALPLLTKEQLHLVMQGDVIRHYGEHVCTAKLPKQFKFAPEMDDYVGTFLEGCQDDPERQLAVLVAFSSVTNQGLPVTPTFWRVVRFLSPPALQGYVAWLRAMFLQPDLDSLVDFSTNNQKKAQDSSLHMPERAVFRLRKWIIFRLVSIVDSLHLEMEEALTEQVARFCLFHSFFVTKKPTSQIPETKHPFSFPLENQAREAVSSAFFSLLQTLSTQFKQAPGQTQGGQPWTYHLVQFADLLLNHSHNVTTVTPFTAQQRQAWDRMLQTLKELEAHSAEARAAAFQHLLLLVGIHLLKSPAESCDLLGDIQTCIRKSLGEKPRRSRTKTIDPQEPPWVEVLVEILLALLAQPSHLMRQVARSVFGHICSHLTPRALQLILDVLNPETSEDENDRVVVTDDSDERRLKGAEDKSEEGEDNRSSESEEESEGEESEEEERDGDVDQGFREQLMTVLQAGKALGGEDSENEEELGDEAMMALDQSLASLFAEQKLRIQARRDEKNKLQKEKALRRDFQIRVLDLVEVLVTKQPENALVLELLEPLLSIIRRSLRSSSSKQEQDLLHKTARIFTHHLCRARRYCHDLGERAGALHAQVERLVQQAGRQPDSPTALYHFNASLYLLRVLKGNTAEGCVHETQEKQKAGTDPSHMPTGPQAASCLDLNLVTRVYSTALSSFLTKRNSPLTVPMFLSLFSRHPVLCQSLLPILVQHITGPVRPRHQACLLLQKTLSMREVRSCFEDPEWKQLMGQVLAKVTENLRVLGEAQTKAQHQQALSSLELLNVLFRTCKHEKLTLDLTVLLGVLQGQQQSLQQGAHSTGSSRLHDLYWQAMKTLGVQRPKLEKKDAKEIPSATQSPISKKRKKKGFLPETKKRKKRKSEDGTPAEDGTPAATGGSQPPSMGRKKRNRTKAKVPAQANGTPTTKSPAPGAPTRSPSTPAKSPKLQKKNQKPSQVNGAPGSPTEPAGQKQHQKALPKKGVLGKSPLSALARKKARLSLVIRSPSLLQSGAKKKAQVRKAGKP
UniProt P35579, whole entry, looked up: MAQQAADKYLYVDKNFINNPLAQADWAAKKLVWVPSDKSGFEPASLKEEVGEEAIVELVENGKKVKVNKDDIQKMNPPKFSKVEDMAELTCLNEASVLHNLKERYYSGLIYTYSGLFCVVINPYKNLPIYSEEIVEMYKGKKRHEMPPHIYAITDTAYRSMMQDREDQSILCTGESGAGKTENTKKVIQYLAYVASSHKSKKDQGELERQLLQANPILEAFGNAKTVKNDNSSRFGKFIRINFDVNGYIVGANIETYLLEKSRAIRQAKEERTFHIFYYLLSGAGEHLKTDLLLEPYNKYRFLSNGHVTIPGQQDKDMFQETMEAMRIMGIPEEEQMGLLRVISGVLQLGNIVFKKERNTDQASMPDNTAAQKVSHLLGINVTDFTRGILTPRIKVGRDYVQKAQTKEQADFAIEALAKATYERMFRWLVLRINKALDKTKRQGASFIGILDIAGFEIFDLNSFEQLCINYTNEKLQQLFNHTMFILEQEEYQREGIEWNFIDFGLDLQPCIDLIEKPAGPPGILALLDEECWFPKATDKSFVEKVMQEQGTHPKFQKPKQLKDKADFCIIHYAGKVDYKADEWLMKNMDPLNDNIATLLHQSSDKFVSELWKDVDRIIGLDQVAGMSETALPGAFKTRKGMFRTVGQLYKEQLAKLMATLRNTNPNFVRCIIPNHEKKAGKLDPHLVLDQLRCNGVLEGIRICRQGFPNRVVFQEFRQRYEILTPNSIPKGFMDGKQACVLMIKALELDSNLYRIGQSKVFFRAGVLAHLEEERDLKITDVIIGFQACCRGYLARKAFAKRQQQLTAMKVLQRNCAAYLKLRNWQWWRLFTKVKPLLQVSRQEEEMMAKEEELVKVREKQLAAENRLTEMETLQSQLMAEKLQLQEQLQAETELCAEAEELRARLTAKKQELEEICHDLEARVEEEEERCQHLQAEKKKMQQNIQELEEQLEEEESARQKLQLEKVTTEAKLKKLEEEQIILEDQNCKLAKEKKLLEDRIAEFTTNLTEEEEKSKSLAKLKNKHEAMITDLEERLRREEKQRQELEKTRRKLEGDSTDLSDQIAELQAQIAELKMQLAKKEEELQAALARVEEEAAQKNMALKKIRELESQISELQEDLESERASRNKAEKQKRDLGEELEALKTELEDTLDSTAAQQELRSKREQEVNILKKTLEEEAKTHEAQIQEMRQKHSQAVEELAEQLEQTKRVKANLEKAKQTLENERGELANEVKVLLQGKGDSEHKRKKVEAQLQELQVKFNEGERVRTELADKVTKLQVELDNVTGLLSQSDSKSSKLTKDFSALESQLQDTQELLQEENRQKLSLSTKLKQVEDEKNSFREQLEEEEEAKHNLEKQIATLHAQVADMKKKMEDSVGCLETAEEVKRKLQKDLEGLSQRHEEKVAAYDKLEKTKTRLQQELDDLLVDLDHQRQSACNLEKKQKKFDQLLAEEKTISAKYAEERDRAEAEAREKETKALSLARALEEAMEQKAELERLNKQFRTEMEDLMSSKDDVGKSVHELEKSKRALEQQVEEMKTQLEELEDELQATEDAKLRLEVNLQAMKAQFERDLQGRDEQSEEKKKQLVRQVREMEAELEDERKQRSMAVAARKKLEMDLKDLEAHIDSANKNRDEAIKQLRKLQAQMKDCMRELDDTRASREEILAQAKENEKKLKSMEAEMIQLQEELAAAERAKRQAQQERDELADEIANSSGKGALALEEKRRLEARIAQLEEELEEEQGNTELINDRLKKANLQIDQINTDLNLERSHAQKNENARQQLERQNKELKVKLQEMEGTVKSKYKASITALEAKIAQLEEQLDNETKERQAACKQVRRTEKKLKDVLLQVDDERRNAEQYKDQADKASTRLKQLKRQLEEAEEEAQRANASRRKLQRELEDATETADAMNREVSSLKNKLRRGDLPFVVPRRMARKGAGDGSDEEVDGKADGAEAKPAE
UniProt Q969V5: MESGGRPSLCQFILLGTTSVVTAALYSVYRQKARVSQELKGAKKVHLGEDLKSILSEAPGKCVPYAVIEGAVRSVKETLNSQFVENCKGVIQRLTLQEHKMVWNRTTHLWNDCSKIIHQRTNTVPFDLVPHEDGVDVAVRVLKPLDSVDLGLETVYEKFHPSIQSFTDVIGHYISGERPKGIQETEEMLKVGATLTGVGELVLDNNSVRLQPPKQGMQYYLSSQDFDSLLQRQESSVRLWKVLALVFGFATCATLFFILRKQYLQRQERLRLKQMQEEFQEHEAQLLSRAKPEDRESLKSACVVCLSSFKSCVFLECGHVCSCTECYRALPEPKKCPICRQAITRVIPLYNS
UniProt Q9Y3D2: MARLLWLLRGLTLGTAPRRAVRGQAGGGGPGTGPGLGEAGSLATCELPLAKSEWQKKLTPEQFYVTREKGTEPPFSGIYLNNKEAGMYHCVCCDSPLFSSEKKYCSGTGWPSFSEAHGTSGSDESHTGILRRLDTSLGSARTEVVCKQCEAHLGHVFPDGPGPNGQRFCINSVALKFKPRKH
UniProt P26038, whole entry: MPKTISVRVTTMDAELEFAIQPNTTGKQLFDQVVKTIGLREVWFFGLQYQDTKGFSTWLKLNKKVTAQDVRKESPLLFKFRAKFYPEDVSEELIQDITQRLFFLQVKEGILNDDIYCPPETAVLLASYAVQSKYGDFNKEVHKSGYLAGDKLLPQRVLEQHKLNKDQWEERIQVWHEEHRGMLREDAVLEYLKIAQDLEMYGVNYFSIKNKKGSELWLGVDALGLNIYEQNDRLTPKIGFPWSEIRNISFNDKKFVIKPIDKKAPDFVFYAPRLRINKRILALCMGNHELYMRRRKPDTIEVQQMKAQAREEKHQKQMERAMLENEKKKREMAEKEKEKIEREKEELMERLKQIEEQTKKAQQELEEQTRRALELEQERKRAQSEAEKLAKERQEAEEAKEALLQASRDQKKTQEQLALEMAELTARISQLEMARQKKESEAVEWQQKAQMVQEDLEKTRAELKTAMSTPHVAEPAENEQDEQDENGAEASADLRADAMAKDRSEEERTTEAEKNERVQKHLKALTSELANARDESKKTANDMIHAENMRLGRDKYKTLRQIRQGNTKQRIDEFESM

Target | probe-labelled cysteine peptide fold change (10 µM) | probe-labelled cysteine peptide fold change (50 µM)
MRPS9_P82933_330_HDVTCTVSGGGR (UniProt P82933) | 0.0103 | 0.149
MX1_P20591_52_VRPCIDLIDSLR (UniProt P20591) | -0.124 | -0.0865
MSH6_P52701_406_RPDHPDFDASTLYVPEDFLNSCTPGMR (UniProt P52701) | -0.103 | -0.024
MYCBP2_O75592_1198_SHAALHILGCLDTLAAMQDLK (UniProt O75592) | 0.12 | 0.000495
MTMR12_Q9C0I1_53_EVTLHLLPGEQLLCEASTVLK (UniProt Q9C0I1) | 0.0327 | -0.0646
MTMR14_Q8NCE2_131_FVCPVILFK (UniProt Q8NCE2) | -0.00849 | -0.0865
MTMR9_Q96QG7_285_LVEACNDQTHNMDR (UniProt Q96QG7) | 0.146 | 0.0601
MTOR_P42345_1593_AYGAMVSCHMLSELEEVIQYK (UniProt P42345) | -0.0907 | -0.0524
MYBBP1A_Q9BQG0_614+623_SPAESCDLLGDIQTCIR (UniProt Q9BQG0) | -0.527 | -0.31
MYCBP2_O75592_4558_CDAEAGRGDDYDPR (UniProt O75592) | 0.032 | -0.332
MYH9_P35579_569_DKADFCIIHYAGK (UniProt P35579) | -0.0165 | -0.33
MSH3_P20585_803_EQLVLDCSAEWLDFLEK (UniProt P20585) | 0.167 | 0.31
MSH6_P52701_108_MEGYPWWPCLVYNHPFDGTFIR (UniProt P52701) | 0.184 | 0.261
MYH11_P35749_95_VEDMAELTCLNEASVLHNLR (UniProt P35749) | 0.607 | 0.764
MTHFD1L_Q6UB35_778+779_EYTEENIQLVADGCCNLQK (UniProt Q6UB35) | 0.141 | -0.18
MTM1_Q13496_113_GENSYGLDITCK (UniProt Q13496) | -0.125 | 0.0925
MYH9_P35579_917_KQELEEICHDLEAR (UniProt P35579) | -0.0457 | 0.109
MRPS28_Q9Y2Q9_122+124_FHCVCR (UniProt Q9Y2Q9) | 0.137 | -0.442
MYEF2_Q9P2K5_546_FSQCGHVMFAEIK (UniProt Q9P2K5) | 0.135 | -0.0725

Target | probe-labelled cysteine peptide fold change (10 µM) | probe-labelled cysteine peptide fold change (50 µM)
MRPS27_Q92552_101_HSPNCWYLR (UniProt Q92552) | -0.0636 | 0.0342
MTREX_P42285_399_DCEAYALQMTK (UniProt P42285) | -0.242 | 0.309
MTMR3_Q13615_81_ESLVNVPLQLIESVECR (UniProt Q13615) | 0.463 | 0.198
MRPS18C_Q9Y3D5_100_HITGLCGK (UniProt Q9Y3D5) | 0.0835 | -0.0765
MRPS34_P82930_93_SWLWQHDEPCYWR (UniProt P82930) | 0.00309 | 0.0608
MTA1_Q13330_68_HATLSVCYK (UniProt Q13330) | 0.127 | -0.265
MYH9_P35579_569_ADFCIIHYAGK (UniProt P35579) | 0.058 | 0.292
MUL1_Q969V5_62_CVPYAVIEGAVR (UniProt Q969V5) | -0.177 | -0.433
MSTO1_Q9BUK6_178_SICMIQK (UniProt Q9BUK6) | 0.0166 | -0.244
MYBBP1A_Q9BQG0_968_AGTDPSHMPTGPQAASCLDLNLVTR (UniProt Q9BQG0) | -0.306 | -0.421
MTMR12_Q9C0I1_694_HHSQQAPQAEAPCLLR (UniProt Q9C0I1) | 0.0393 | -0.559
MRPS9_P82933_233_LLTSQCGAAEEEFVQR (UniProt P82933) | -0.073 | 0.0391
MTOR_P42345_1999_NMCEHSNTLVQQAMMVSEELIR (UniProt P42345) | 0.0665 | -0.189
MTHFD1_P11586_408_STTTIGLVQALGAHLYQNVFACVR (UniProt P11586) | -0.162 | -0.00951
MTMR3_Q13615_188_LCGSYPQELIVPAWITDK (UniProt Q13615) | 0.117 | 0.105
MTG1_Q9BT17_51_LVDCIIEVHDAR (UniProt Q9BT17) | 0.0252 | 0.0322
MSRB2_Q9Y3D2_45_GQAGGGGPGTGPGLGEAGSLATCELPLAK (UniProt Q9Y3D2) | -0.129 | -0.277
MVB12B_Q9H7P6_267_FSCVPESMQPFDLLGITIK (UniProt Q9H7P6) | 0.25 | -0.28
MSN_P26038_117_EGILNDDIYCPPETAVLLASYAVQSK (UniProt P26038) | -0.0133 | -0.24

Look-ups from above:
Value for MUL1_Q969V5_62_CVPYAVIEGAVR (UniProt Q969V5) under probe-labelled cysteine peptide fold change (50 µM): -0.433
Value for MSN_P26038_117_EGILNDDIYCPPETAVLLASYAVQSK (UniProt P26038) under probe-labelled cysteine peptide fold change (10 µM): -0.0133
Value for MTMR12_Q9C0I1_694_HHSQQAPQAEAPCLLR (UniProt Q9C0I1) under probe-labelled cysteine peptide fold change (10 µM): 0.0393

From the supplement of paper PMC12067093, “Discovery and optimisation of a covalent ligand for TRIM25 and its application to targeted protein ubiquitination” (Chemical Science, 2025)
